# For some of these results: Plain letter strings leave the end groups untold.
# What was measured:
# [1] = general procedure: Fmoc solid-phase peptide synthesis; Wang resin; HBTU/HOBT/DIPEA; HATU/DIPEA for warhead; conditions: whole synthesis
# [2] = peptide made by a vendor (peptide synthesis; Wang resin; HBTU/HOBT/DIPEA; HATU/DIPEA for warhead); conditions: whole synthesis, scale of the general procedure 0.13 mmol (300 mg resin), 0.09 mmol (200 mg) for 1c; for final HPLC purity: 220 nm; for purity (crude or final not stated): analytical RP-HPLC, UV 220 nm
# [3] = 220 nm, scale of the general procedure 0.13 mmol (300 mg resin), 0.09 mmol (200 mg) for 1c
# [4] = analytical RP-HPLC, UV 220 nm, scale 0.13 mmol
# [5] = scale of the general procedure 0.13 mmol (300 mg resin), 0.09 mmol (200 mg) for 1c
Substance,"final HPLC purity [1, 3] [%]","purity (crude or final not stated) [1, 4] [%]","isolated yield [1, 5] [%]",also measured
RWVW-RDYRFDMGFD-WVWE,93,–,–,isolated yield ([1]; scale 0.09 mmol): 30%
RWVW-RDYRGDMGFD-WVWE,99,–,–,isolated yield ([1]; scale 0.13 mmol): 35%
RWVAR-RDYRFD[Dab(MAA)]GFD-YWVWE,99,99,14,–
RWVA-REGMNTDWYFD-YWHWE,94,94,10,–
RWVA-RRDYRGDMGFD-YWVWE,99,–,–,isolated yield ([1]; scale 0.13 mmol): 34%
RWCAR-RDYRFDMGFD-YWGWE,90,–,–,isolated yield ([1]; scale 0.13 mmol): 33%
RWVA-RAYGNYWYID-VWHWE,99,99,23,–
RWVAR-RDYRFD[Dab(DMA)]GFD-YWVWE,99,99,20,–
RWVVR-RDYRFDMGFD-YWVWE,–,–,–,final HPLC purity [2]: 97%; purity (crude or final not stated) [2]: 97%
RWVA-RRDYRGDMGFD-YWHWE,95,95,65,–
RWVA-REGMNTDG[Dab(ACA)]FN-YWVWE,99,99,22,–
RWVAR-RDYRFDMGFD-YWHWE,97,99,–,–
RWVKR-RDYRFDMGFD-YWVWE,–,–,–,final HPLC purity [2]: 99%; purity (crude or final not stated) [2]: 99%
RWVA-REGMNTDGYFN-YWVWE,–,95,–,final HPLC purity [2]: 95%
RWVAR-RDYRFD[Dab(ACA)]GFD-YWVWE,99,99,9,–
RWVA-REGMNTDG[Dap(ACA)]FN-YWVWE,99,99,19,–

Substance,"final HPLC purity [1, 3] [%]","purity (crude or final not stated) [1, 4] [%]","isolated yield [1, 5] [%]",also measured
RWVKR-RDYRGDM..GFD-YWVWE,97,97,31,–
cRWCAR-RDYRFDMGFD-YWCWE,–,–,–,"final HPLC purity ([1]; 220 nm, scale of the general procedure 0.13 mmol (300 mg resin), 0.09 mmol (200 mg) for 1c, one disulfide bridge, sequence written open): 99%; purity (crude or final not stated) ([1]; analytical RP-HPLC, UV 220 nm, scale 0.13 mmol, one disulfide bridge, sequence written open): 99%; isolated yield ([1]; scale of the general procedure 0.13 mmol (300 mg resin), 0.09 mmol (200 mg) for 1c, one disulfide bridge, sequence written open): 16%"
RWVAR-RDYRFDMGFN-YWVWE,–,–,–,final HPLC purity [2]: 96%; purity (crude or final not stated) [2]: 96%
RWVAR-RDYRFD[Dap(ACA)]GFD-YWVWE,99,99,4,–
RGVARRDYRGDPGFDYWHWE,98,–,–,isolated yield ([1]; scale 0.13 mmol): 33%
RWVA-RRDYRFDMGFD-YWVWE,99,–,–,isolated yield ([1]; scale 0.13 mmol): 36%
RWVVR-RDYRGDMGFD-YWVWE,–,–,–,final HPLC purity [2]: 99%; purity (crude or final not stated) [2]: 99%
RWVW-RDLDIATTRDY-WVWE,93,93,28,–
RWVA-RAYGNYGYID-VWHWE,98,98,19,–
RWVA-REGMNTDGYFD-YWHWE,98,98,33,–
RWVW-RRDYRFDMGFD-YWVWE,90,–,–,isolated yield ([1]; scale 0.13 mmol): 53%
RWVAR-RDYRGDMGFN-YWVWE,99,99,32,–
RWVW-GGGGKKGGGG-WVWE,98,–,–,"final HPLC purity ([1]; analytical RP-HPLC, UV 220 nm, scale of the general procedure 0.13 mmol (300 mg resin), 0.09 mmol (200 mg) for 1c): 88%; isolated yield ([1]; scale 0.13 mmol): 70%"
RWVA-RGGGGKKGGFD-YWVWE,99,–,–,isolated yield ([1]; scale 0.13 mmol): 51%
RWVW-SPDSSGVAY-WVWE,99,99,43,–
